The list shows a part of the results. The data scatter; read single values as rough.

This test deals with Candida albicans SN425. Briefly: biofilm OD600 B-score; higher = more biofilm (less inhibition). The note with it: 10 µM; assay detail: High-throughput adherence inhibition optical density biofilm assay with C. albicans SN425 in RPMI-1640/MOPS pH 7.0, 384-well plates. …. Here is the method:
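High-throughput adherence inhibition optical density biofilm assay with C. albicans SN425 in RPMI-1640/MOPS pH 7.0, 384-well plates. Compound (10 µM) was present only during the 90 min adherence step, then washed out, and the biofilm grew 24 h without compound. Biofilm was read as OD600 after removing the media. Scores are the difference from the mean in standard deviations and the plate B-score.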
Turning to `CC(C(=O)NN)C1=NC(C)(C)Cc2ccccc21` (configuration not stated), the “biofilm OD600 B-score” value is -0.0261.

As for `Nc1nc(-c2ccccc2)c(I)c(=O)[nH]1`, the “biofilm OD600 B-score” value amounted to 4.86.

Consider `CCN1CCN(CC(O)COc2ccc3c(c2)CCC3)CC1` (configuration not stated), for which the “biofilm OD600 B-score” value was -1.53.

For the compound `NC(=O)C1CCN(C(=O)c2cccc(Cl)c2)CC1`, the “biofilm OD600 B-score” value came to 0.858.

As to `O=S(=O)(Cc1ccccc1)NCc1cccnc1`, the “biofilm OD600 B-score” value came to 0.41.

Turning to `COc1ccc(S(=O)(=O)N2CCCC2)cc1`, the “biofilm OD600 B-score” value turned out to be 3.88.

`O=C(c1ccco1)N1CCN(C(=O)N(c2ccccc2)c2ccccc2)CC1`: the “biofilm OD600 B-score” value is -0.499.

Consider `CC(C)(O)C#CCN1CCCCC1`, for which the “biofilm OD600 B-score” value was -1.91.

For `CC(O)/C=C/c1ccc2ccccc2n1` (configuration not stated), the “biofilm OD600 B-score” value is -4.03.

Regarding `Cc1ccc(NC(=O)c2ccc(CN3CCOCC3)cc2)cc1`, the “biofilm OD600 B-score” value is -0.794.

With `Cc1ccnc(NS(=O)(=O)c2ccc(C(C)(C)C)cc2)c1`, the “biofilm OD600 B-score” value worked out at 0.216.

Turning to `CCC1CCC(N(CC)CCN(C)C)CC1` (configuration not stated), the “biofilm OD600 B-score” value is -0.862.

Turning to `CCOc1ccc2nc(SCC(N)=O)sc2c1`, the “biofilm OD600 B-score” value came to 0.0394.

With `COc1ccc(-c2nc(N)sc2C)c(OC)c1`, the “biofilm OD600 B-score” value came to 0.13.

With `Cc1cc(C)n(C(=O)c2c(-c3ccccc3)noc2C)n1`, the “biofilm OD600 B-score” value amounted to 2.77.

For `O=C(Nc1ccccc1)c1cc(S(=O)(=O)Nc2cccnc2)cs1`, the “biofilm OD600 B-score” value amounted to 0.0583.

On to `NS(=O)(=O)c1ccc(NC(=O)c2ccccc2Cl)cc1`, for which the “biofilm OD600 B-score” value came out at 9.75.

The record behind these values is the supplement of paper PMC7824004.
